Measured values taken from patent US20110097264A1, “RADIOLABELING METHOD USING MULTIVALENT GLYCOLIGANDS AS HEPATIC RECEPTOR IMAGING AGENT” (Institute of Nuclear Energy Research Atomic Energy Council, …, priority 2009, published 2011).
At least one peptide structure holds a part that was inferred or is arguable (an end, a ring closure or a residue). For at least one compound, name, drawing or mass did not settle the structure.

Target: T1, ASGPR (Mus musculus, UniProt P24721+P34927)
T1 construct: host or cells: murine hepatocytes (primary, plated)
T1 sequence (P34927 1-284): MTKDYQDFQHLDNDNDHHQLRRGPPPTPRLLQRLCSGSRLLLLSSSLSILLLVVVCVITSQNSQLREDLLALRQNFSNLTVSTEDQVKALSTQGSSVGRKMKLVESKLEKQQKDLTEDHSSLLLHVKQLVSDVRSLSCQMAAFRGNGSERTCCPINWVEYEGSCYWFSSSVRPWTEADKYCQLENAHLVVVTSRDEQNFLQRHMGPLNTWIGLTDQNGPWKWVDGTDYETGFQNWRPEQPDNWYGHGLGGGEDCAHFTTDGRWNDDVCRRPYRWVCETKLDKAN
T1 sequence (P24721 1-301): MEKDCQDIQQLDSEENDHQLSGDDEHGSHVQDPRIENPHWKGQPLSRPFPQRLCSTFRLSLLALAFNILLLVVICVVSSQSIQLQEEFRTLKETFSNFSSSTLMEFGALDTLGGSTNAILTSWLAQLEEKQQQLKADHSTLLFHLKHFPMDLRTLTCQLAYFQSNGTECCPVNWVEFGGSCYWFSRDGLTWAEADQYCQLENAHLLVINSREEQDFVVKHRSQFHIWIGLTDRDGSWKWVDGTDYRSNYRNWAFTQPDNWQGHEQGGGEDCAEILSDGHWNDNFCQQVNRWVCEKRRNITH
Assay: Binding strength of saccharide chain peptide and murine hepatocyte (competition with Eu-ASOR, time-resolved fluorescence)
Procedure: With Eu-asialo-orosomucoid (Eu-ASOR) as reference material, the binding strength of saccharide chain peptide and murine hepatocyte is determined by comparing whether the binding degree of saccharide chain peptides, such as DCM-Lys(ah-GalNAc)3, DCM-Lys(Gah-GalNAc)3, DCM-Lys(ah-Lac)3, AHA-Asp[DCM-Lys(ah-Lac)3]2 with murine hepatocyte is higher than that of Eu-ASOR or not, in which the binding degree is expressed by IC50 (concentration of 50% inhibition), and the lower the IC50 is, the higher the binding degree is. The murine hepatocyte (from Lonza Biotechnology Company, Maryland) is plated in a 24-well plate in advance, and the reaction occurs in each well, into which (i) Eu-ASOR 10 nM (ii) hepatocyte basic medium with 5 mM calcium chloride, and (iii) five different concentrations of saccharide chain peptide of 1 uM-0.8 nM are added. After culturing under shaking for 1 hr, the substance that has not been bound to hepatocyte is removed by washing with the hepatocyte basic medium containing calcium chloride. Time-resolved fluorescence spectroscopy is preformed, that is, an enhancement solution (15
uM β-naphthoyl trifluoroacetone, 50 uM tri-n-octyl-phosphine oxide, 0.1 M potassium hydrogen phthalate, 0.1% Triton X-100 in 0.1 M acetic acid, pH 3.2) is added. The enhancement solution reacts with Eu^3+ to form a Eu chelate, which can emit a light of 615 nm when being excited at 340 nm. […]

SMILES | binding with ASGPR relative to YEE or YDD (compared with YEE or YDD, from Table 1) | IC50 (murine hepatocyte, Eu-ASOR 10 nM, 5 mM calcium chloride, 1 hr) [nM]
NCCCCCC(=O)N[C@@H](CC(=O)NCCCC[C@@H](C(=O)NCCCCCCOC1O[C@H](CO)[C@@H](O[C@@H]2O[C@H](CO)[C@H](O)[C@H](O)[C@H]2O)[C@H](O)[C@H]1O)N(CC(=O)NCCCCCCOC1O[C@H](CO)[C@@H](O[C@@H]2O[C@H](CO)[C@H](O)[C@H](O)[C@H]2O)[C@H](O)[C@H]1O)CC(=O)NCCCCCCOC1O[C@H](CO)[C@@H](O[C@@H]2O[C@H](CO)[C@H](O)[C@H](O)[C@H]2O)[C@H](O)[C@H]1O)C(=O)NCCCC[C@@H](C(=O)NCCCCCCOC1O[C@H](CO)[C@@H](O[C@@H]2O[C@H](CO)[C@H](O)[C@H](O)[C@H]2O)[C@H](O)[C@H]1O)N(CC(=O)NCCCCCCOC1O[C@H](CO)[C@@H](O[C@@H]2O[C@H](CO)[C@H](O)[C@H](O)[C@H]2O)[C@H](O)[C@H]1O)CC(=O)NCCCCCCOC1O[C@H](CO)[C@@H](O[C@@H]2O[C@H](CO)[C@H](O)[C@H](O)[C@H]2O)[C@H](O)[C@H]1O (some centres unmarked) [AHA-Asp[DCM-Lys(ahLac)3]2, AHA-Asp[DCM-Lys(ah-Lac)3]2] | the same binding strength as that of YEE or YDD | –
CC(=O)N[C@H]1[C@H](OCCCCCCNC(=O)CN(CC(=O)NCCCCCCO[C@@H]2O[C@H](CO)[C@H](O)[C@H](O)[C@H]2NC(C)=O)[C@@H](CCCCN)C(=O)NCCCCCCO[C@@H]2O[C@H](CO)[C@H](O)[C@H](O)[C@H]2NC(C)=O)O[C@H](CO)[C@H](O)[C@@H]1O [DCM-Lys(ahGalNAc)3] | – | 10
